Literature values, collected in patent US20100222390A1, “Methods and Compositions for the Intravenous Administration of Compounds Related to Proton Pump Inhibitors” (Alevium Pharmaceuticals, Inc., priority 2004, published 2010).
Some of these results come from one statement about several compounds together.

Conditions: shown in the applicants' earlier filings; cited from earlier work

**Q.** Which “decompose in vivo to form proton pump inhibitors” value does the source give for COCCCOc1ccnc(C[S+]([O-])c2nc3ccccc3n2S(=O)(=O)c2cc(C(=O)O)ccc2C)c1C (stereo not drawn) [Compound 31] here?
**A.** decompose in vivo to form proton pump inhibitors

**Q.** For COc1ccc2c(c1)nc([S+]([O-])Cc1ncc(C)c(OC)c1C)n2S(=O)(=O)c1c(C)cc(OCC(C)(C)C(=O)O)cc1C (stereo not drawn) [Compound 4], which “decompose in vivo to form proton pump inhibitors” value is on record?
**A.** decompose in vivo to form proton pump inhibitors

**Q.** With Cc1c(OCC(F)(F)F)ccnc1C[S+]([O-])c1nc2ccccc2n1S(=O)(=O)c1ccc(CC(=O)O)c(CC(=O)O)c1 (stereo not drawn) [Compound 12] as the compound, how does the “decompose in vivo to form proton pump inhibitors” value read?
**A.** decompose in vivo to form proton pump inhibitors

**Q.** With Cc1cc(C(=O)O)ccc1S(=O)(=O)n1c([S+]([O-])Cc2nccc(OCC(F)(F)F)c2C)nc2ccccc21 (stereo not drawn) [Compound 37] as the compound, how does the “decompose in vivo to form proton pump inhibitors” value read?
**A.** decompose in vivo to form proton pump inhibitors

**Q.** For COc1ccc(S(=O)(=O)n2c([S+]([O-])Cc3nccc(OCC(F)(F)F)c3C)nc3ccccc32)cc1CCC(=O)O (stereo not drawn) [Compound 38], which “decompose in vivo to form proton pump inhibitors” value is on record?
**A.** decompose in vivo to form proton pump inhibitors

**Q.** For COc1ccc(C(=O)O)cc1S(=O)(=O)n1c([S+]([O-])Cc2nccc(OCC(F)(F)F)c2C)nc2ccccc21 (stereo not drawn) [Compound 14], which “decompose in vivo to form proton pump inhibitors” value is on record?
**A.** decompose in vivo to form proton pump inhibitors

**Q.** With Cc1c(OCC(F)(F)F)ccnc1C[S+]([O-])c1nc2ccccc2n1S(=O)(=O)c1ccc(OCC(=O)O)c(OCC(=O)O)c1 (stereo not drawn) [Compound 35] as the compound, how does the “decompose in vivo to form proton pump inhibitors” value read?
**A.** decompose in vivo to form proton pump inhibitors

**Q.** Which “decompose in vivo to form proton pump inhibitors” value does the source give for Cc1c(OCC(F)(F)F)ccnc1C[S+]([O-])c1nc2ccccc2n1S(=O)(=O)c1ccc(C(=O)O)cc1 (stereo not drawn) [Compound 18] here?
**A.** decompose in vivo to form proton pump inhibitors

**Q.** With COCCCOc1ccnc(C[S+]([O-])c2nc3ccccc3n2S(=O)(=O)c2ccc(C(=O)O)cc2)c1C (stereo not drawn) [Compound 33] as the compound, how does the “decompose in vivo to form proton pump inhibitors” value read?
**A.** decompose in vivo to form proton pump inhibitors

**Q.** Which “decompose in vivo to form proton pump inhibitors” value does the source give for COc1ccc2c(c1)nc([S+]([O-])Cc1ncc(C)c(OC)c1C)n2S(=O)(=O)c1cccc(C(=O)O)c1 (stereo not drawn) [Compound 6] here?
**A.** decompose in vivo to form proton pump inhibitors

**Q.** Which “decompose in vivo to form proton pump inhibitors” value does the source give for Cc1c(OCC(F)(F)F)ccnc1C[S+]([O-])c1nc2ccccc2n1S(=O)(=O)c1ccc(OCC(=O)O)cc1 (stereo not drawn) [Compound 10] here?
**A.** decompose in vivo to form proton pump inhibitors

**Q.** With COCCCOc1ccnc(C[S+]([O-])c2nc3ccccc3n2S(=O)(=O)c2c(C)cc(OCC(=O)O)cc2C)c1C (stereo not drawn) [Compound 32] as the compound, how does the “decompose in vivo to form proton pump inhibitors” value read?
**A.** decompose in vivo to form proton pump inhibitors

**Q.** Which “decompose in vivo to form proton pump inhibitors” value does the source give for COc1ccc2c(c1)nc([S+]([O-])Cc1ncc(C)c(OC)c1C)n2S(=O)(=O)c1ccc(OCC(C)(C)C(=O)O)cc1 (stereo not drawn) [Compound 3] here?
**A.** decompose in vivo to form proton pump inhibitors

**Q.** For COc1ccc2c(c1)nc([S+]([O-])Cc1ncc(C)c(OC)c1C)n2S(=O)(=O)c1ccc(CC(=O)O)cc1 (stereo not drawn) [Compound 5], which “decompose in vivo to form proton pump inhibitors” value is on record?
**A.** decompose in vivo to form proton pump inhibitors

**Q.** For Cc1c(OCC(F)(F)F)ccnc1C[S+]([O-])c1nc2ccccc2n1S(=O)(=O)c1ccc(OCC(C)(C)C(=O)O)cc1 (stereo not drawn) [Compound 11], which “decompose in vivo to form proton pump inhibitors” value is on record?
**A.** decompose in vivo to form proton pump inhibitors

**Q.** With COc1ccc2c(c1)nc([S+]([O-])Cc1ncc(C)c(OC)c1C)n2S(=O)(=O)c1ccc(OCC(=O)O)cc1 (stereo not drawn) [Compound 1] as the compound, how does the “decompose in vivo to form proton pump inhibitors” value read?
**A.** decompose in vivo to form proton pump inhibitors

**Q.** With Cc1c(OCC(F)(F)F)ccnc1C[S+]([O-])c1nc2ccccc2n1S(=O)(=O)c1ccc(CC(=O)O)cc1C(C)C (stereo not drawn) [Compound 15] as the compound, how does the “decompose in vivo to form proton pump inhibitors” value read?
**A.** decompose in vivo to form proton pump inhibitors

**Q.** Which “decompose in vivo to form proton pump inhibitors” value does the source give for Cc1ccc(S(=O)(=O)n2c([S+]([O-])Cc3nccc(OCC(F)(F)F)c3C)nc3ccccc32)cc1CCC(=O)O (stereo not drawn) [Compound 19] here?
**A.** decompose in vivo to form proton pump inhibitors

**Q.** For COc1ccc2c(c1)nc([S+]([O-])Cc1ncc(C)c(OC)c1C)n2S(=O)(=O)c1c(C)cc(OCC(=O)O)cc1C (stereo not drawn) [Compound 2], which “decompose in vivo to form proton pump inhibitors” value is on record?
**A.** decompose in vivo to form proton pump inhibitors

**Q.** For Cc1c(OCC(F)(F)F)ccnc1C[S+]([O-])c1nc2ccccc2n1S(=O)(=O)c1cccc(C(=O)O)c1 (stereo not drawn) [Compound 7], which “decompose in vivo to form proton pump inhibitors” value is on record?
**A.** decompose in vivo to form proton pump inhibitors

**Q.** For Cc1cc(OCC(=O)O)cc(C(C)C)c1S(=O)(=O)n1c([S+]([O-])Cc2nccc(OCC(F)(F)F)c2C)nc2ccccc21 (stereo not drawn) [Compound 17], which “decompose in vivo to form proton pump inhibitors” value is on record?
**A.** decompose in vivo to form proton pump inhibitors

**Q.** For Cc1cc(OCC(=O)O)cc(C)c1S(=O)(=O)n1c([S+]([O-])Cc2nccc(OCC(F)(F)F)c2C)nc2ccccc21 (stereo not drawn) [Compound 34], which “decompose in vivo to form proton pump inhibitors” value is on record?
**A.** decompose in vivo to form proton pump inhibitors

**Q.** Which “decompose in vivo to form proton pump inhibitors” value does the source give for Cc1c(OCC(F)(F)F)ccnc1C[S+]([O-])c1nc2ccccc2n1S(=O)(=O)c1ccc(C(=O)O)c(OCC(=O)O)c1 (stereo not drawn) [Compound 16] here?
**A.** decompose in vivo to form proton pump inhibitors

**Q.** With Cc1c(OCC(F)(F)F)ccnc1C[S+]([O-])c1nc2ccccc2n1S(=O)(=O)c1ccc(CC(=O)O)cc1 (stereo not drawn) [Compound 9] as the compound, how does the “decompose in vivo to form proton pump inhibitors” value read?
**A.** decompose in vivo to form proton pump inhibitors
